Laboratory results from PubChem BioAssay AID540303 (National Center for Advancing Translational Sciences (NCATS), 2011).
Screen size: about 330,000 compounds; about 1,000 (0.3%) were called active. This list was built around the results that the source calls inconclusive (neither active nor inactive); the mix of calls is not that of the screen. Calls follow the shape of the dose curve; as a rule, active = well fitted inhibition curve with a large enough effect; inconclusive = small, poorly fitted or top-dose-only effect; inactive = no such curve, though single readings can be large or run the other way; tested in mouse RAW 264.7 cells. Potencies of inconclusive entries are doubtful fits and often do not repeat.

Assay: qHTS for Inhibitors of Cell Surface uPA Generation; also: nearly all actives have a fitted effect of over 55% in size
Settings: cell surface uPA generation assay; series mostly up to 38.3 µM
Procedure, shortened: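 Murine RAW 264.7 cells are treated for 24 h with compound up to 38.3 uM final. Cell ATP, measured by ATP-Lite, remains high if blocking the uPA cascade prevents LF from reaching the cytoplasm.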
Potency is read from the fitted curve at half-maximal effect.

Structure (SMILES) | Potency
COC(=O)c1cc(NC(=O)c2c(-c3ccccc3)noc2C)ccc1N1CCOCC1 | inconclusive: 7.94 µM [inhibitor, partial curve]
CC(=O)Nc1nonc1NC(=O)c1ccc(C(C)(C)C)cc1 | inactive
CCOP(=O)(OCC)c1nc(-c2cccc3ccccc23)oc1N1CCOCC1 | inactive
O=C(C1CCC(CNS(=O)(=O)c2cccs2)CC1)N1CCN(c2ccc(Cl)cc2)CC1 (centres undefined) | inconclusive: 14.1 µM [inhibitor, single point]
COCCN(C(=O)C1=COCCO1)c1c(N)n(CC(C)C)c(=O)[nH]c1=O | inconclusive: 12.6 µM [inhibitor, single point]
O=S(=O)(c1ccc(Cl)cc1)N1CCN(Cc2c[nH]c3ccccc23)CC1 | inactive
COc1ccc(-n2c(SC(C)C(=O)Nc3ncc(Cl)cc3Cl)nc3ccccc32)cc1 (centres undefined) | inconclusive: 1.41 µM [inhibitor, full curve, poor fit]
COc1cc(/C=C(/C#N)C(=O)NCc2ccccc2)cc(OC)c1OC | inconclusive: 11.2 µM [inhibitor, partial curve]
COc1ccc(CCC(=O)NNC(=O)Nc2cccc(Cl)c2)cc1 | inactive
COc1ccc([N+](=O)[O-])cc1N(CC(O)CN(C)C)S(=O)(=O)c1ccc(C)cc1 (centres undefined) | inconclusive: 10 µM [inhibitor, partial curve, poor fit]
CCOC(=O)C1(CC2CC2)CCN(C(=O)c2ocnc2C)CC1 | inconclusive: 1.78 µM [inhibitor, single point]
Cc1ccc(CC(=O)NCC2CCCCC2)cc1 | inconclusive: 22.4 µM [inhibitor, single point]
CC(=O)c1ccc(NC(=O)c2noc(C)c2[N+](=O)[O-])cc1 | inconclusive: 12.6 µM [inhibitor, single point]
CC1CC(C)CN(C(=O)c2cc(S(=O)(=O)N3CCCCC3)ccc2Cl)C1 (centres undefined) | inconclusive: 10 µM [inhibitor, single point]
Cc1cc(C)nc(NC(=S)Nc2cccc(F)c2)c1 | inactive
CC(C)Oc1cccc(-c2cc(C(=O)NN3CCOCC3)c3ccccc3n2)c1 | inactive
C=CCNCCCOc1ccc(C(C)(C)c2ccccc2)cc1 | inconclusive: 15.8 µM [inhibitor, single point]
Cc1nn(C)c(=S)n1-c1ccc(Cl)cc1 | inactive
CCc1ccc2[nH]c3nc(N/N=C/c4ccc(O)cc4O)nnc3c2c1 | inactive
CCc1nnc(NC(=O)c2ccc(S(=O)(=O)N(C)Cc3ccccc3)cc2)o1 | inconclusive: 10 µM [inhibitor, partial curve]
CC(C)N1C(=O)C(O)(C2COC(C)(C)CC2=O)c2ccccc21 (centres undefined) | inconclusive: 11.2 µM [inhibitor, single point]
O=c1cc(Nc2ccc3c(c2)OCCO3)[nH]c(=O)n1C1CCCCC1 | inconclusive: 12.6 µM [inhibitor, single point]

4 consecutive records already listed, quoted:
Structure (SMILES) | Potency
CC(C)Oc1cccc(-c2cc(C(=O)NN3CCOCC3)c3ccccc3n2)c1 | inactive
C=CCNCCCOc1ccc(C(C)(C)c2ccccc2)cc1 | inconclusive: 15.8 µM [inhibitor, single point]
Cc1nn(C)c(=S)n1-c1ccc(Cl)cc1 | inactive
CCc1ccc2[nH]c3nc(N/N=C/c4ccc(O)cc4O)nnc3c2c1 | inactive

Next compounds:

Structure (SMILES) | Potency
COc1coc(C(O)C[N+](=O)[O-])cc1=O (centres undefined) | inactive
C[C@H]1CN([C@@H](C)CO)C(=O)Cc2cc(NC(=O)C3CC3)ccc2O[C@H]1CN(C)Cc1ccc(Oc2ccccc2)cc1 | inconclusive: 12.6 µM [inhibitor, single point]
CC1(c2ccc([N+](=O)[O-])cc2)NC(=O)N(CC(=O)Nc2ccc(N3CCCCC3)cc2)C1=O (centres undefined) | inactive
Oc1cccc(/C=N/N2CCCCC2)c1O | inconclusive: 11.2 µM [inhibitor, single point]
O=C(Nc1ccc(Br)cn1)c1ccc2ccccc2c1 | inconclusive: 8.91 µM [inhibitor, single point]
Cc1cc(-n2c(C)c3c(C)nnc(C)c3c2C)ccc1N | inactive
CC(C)(C)CN1C(=O)C(=O)NC[C@@H]1CCCCN | inactive
CCOc1ccccc1NC(=O)c1ccc2ccccc2c1 | inactive
Cc1noc(C)c1COC(=O)c1ccc(F)c(S(=O)(=O)N2CCCCC2)c1 | inactive
Cc1ccc(C)c(COC(=O)c2cccc(S(=O)(=O)N3CCCC3)c2)c1 | inconclusive: 11.2 µM [inhibitor, partial curve, poor fit]
FC(F)(F)c1ccc(C2[C@H]3CN(Cc4cccnc4)[C@H](c4ccccc4)C34CC2(c2cccnc2)C4)cc1 (some centres undefined) | inconclusive: 12.6 µM [inhibitor, single point]
COCCCNC(=O)C[C@H]1C[C@H](C(=O)N2CCOCC2)[C@@]2(C)c3[nH]c4cc(-c5ccco5)ccc4c3CCN2C1=O | inconclusive: 10 µM [inhibitor, partial curve, poor fit]
O=C(CN1C(=O)CCC1=O)Nc1cccc2c1C(=O)NC2=O | inactive
CC1CCCN(S(=O)(=O)c2cc(C(=O)NCCc3ccc(S(N)(=O)=O)cc3)ccc2Cl)C1 (centres undefined) | inconclusive: 31.6 µM [inhibitor, single point]
CC(Sc1ccsc1[N+](=O)[O-])C(=O)NCc1ccco1 (centres undefined) | inconclusive: 4.47 µM [inhibitor, partial curve, poor fit]
Cc1cccc(-n2c(SCC(=O)c3c(N)n(C4CC4)c(=O)[nH]c3=O)nnc2N2CCOCC2)c1 | inconclusive: 3.55 µM [inhibitor, partial curve, poor fit]
CN1CCCN(S(=O)(=O)c2ccccc2)c2nc3ccccc3nc21 | inconclusive: 2.82 µM [inhibitor, full curve, poor fit]
Cn1cccc1Cc1nnc(SCC(=O)Nc2ccc(F)cc2F)n1-c1ccc(F)cc1 | inactive
Cn1c(C(=O)NCCCN2CCN(c3ccccc3F)CC2)cc2c(=O)n(C)c3ccccc3c21 | inconclusive: 28.2 µM [inhibitor, single point]
CNC[C@@H](CC1CCCCC1)NC[C@H](CC(C)C)NCCc1cccc(C(F)(F)F)c1 | inconclusive: 12.6 µM [inhibitor, single point]
CCOC(=O)C1(CC2CC2)CCN(Cc2cnc(-c3ccccc3C)nc2)CC1 | inconclusive: 1.41 µM [inhibitor, full curve, poor fit]
O=C(Nc1ccc(Cl)c([N+](=O)[O-])c1)c1ccco1 | inconclusive: 31.6 µM [inhibitor, single point]
